Here are results for three molecules from article PMC9424243, “Structure of a nucleosome-bound MuvB transcription factor complex reveals DNA remodelling” (Nature Communications, 2022).

Protein sequences, listed by entry. Tags and fused reporters are not part of them. Lines headed by an entry give the natural chain unless they say otherwise; changes in a name come on top.
UniProt Q09028: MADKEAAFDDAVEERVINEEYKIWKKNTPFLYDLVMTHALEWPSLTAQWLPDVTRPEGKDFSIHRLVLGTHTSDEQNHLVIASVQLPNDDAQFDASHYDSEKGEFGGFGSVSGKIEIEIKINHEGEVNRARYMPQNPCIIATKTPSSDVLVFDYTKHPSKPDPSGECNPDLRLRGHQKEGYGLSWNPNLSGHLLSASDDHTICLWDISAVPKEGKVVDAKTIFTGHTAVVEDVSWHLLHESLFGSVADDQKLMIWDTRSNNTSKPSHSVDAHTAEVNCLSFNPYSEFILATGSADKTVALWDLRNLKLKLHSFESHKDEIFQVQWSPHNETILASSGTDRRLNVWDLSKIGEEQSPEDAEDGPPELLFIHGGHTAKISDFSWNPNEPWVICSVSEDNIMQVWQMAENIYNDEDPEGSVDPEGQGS
UniProt P10244: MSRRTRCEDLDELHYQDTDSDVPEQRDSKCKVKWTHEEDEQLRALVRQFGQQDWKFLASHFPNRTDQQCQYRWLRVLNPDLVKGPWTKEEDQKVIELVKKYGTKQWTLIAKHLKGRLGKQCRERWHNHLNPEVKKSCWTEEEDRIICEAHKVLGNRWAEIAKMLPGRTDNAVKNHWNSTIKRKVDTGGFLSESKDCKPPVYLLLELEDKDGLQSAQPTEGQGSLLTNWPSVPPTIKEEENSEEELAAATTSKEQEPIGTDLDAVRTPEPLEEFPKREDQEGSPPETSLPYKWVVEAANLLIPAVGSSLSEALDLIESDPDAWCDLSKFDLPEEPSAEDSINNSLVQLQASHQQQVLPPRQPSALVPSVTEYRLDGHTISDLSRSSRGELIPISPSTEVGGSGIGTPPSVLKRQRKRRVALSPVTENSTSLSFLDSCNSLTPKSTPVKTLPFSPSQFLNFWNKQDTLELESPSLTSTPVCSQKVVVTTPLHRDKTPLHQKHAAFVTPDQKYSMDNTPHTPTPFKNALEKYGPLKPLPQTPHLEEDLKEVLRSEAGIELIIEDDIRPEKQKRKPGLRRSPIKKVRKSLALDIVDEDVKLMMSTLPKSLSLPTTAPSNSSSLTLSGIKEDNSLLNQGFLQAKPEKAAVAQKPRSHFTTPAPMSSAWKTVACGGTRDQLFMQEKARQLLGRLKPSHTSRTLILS

No constants are given. Whether binding was seen depends on the method and setting. Some results given as binding are weak or reduced against the parent protein; the word gives no strength.

Assay [1] deals with LIN52^FL(1–116) (human) (UniProt Q52LA3). The assay is described as follows: cryo-EM structure; MMB^core:NCP167 mixed at 2.5:1, GraFix (glutaraldehyde, sucrose gradient); nucleosome at 3.3 Å, MuvB^HEAD 7.5 Å and MuvB^TAIL 8.7 Å, known structures fitted; both purified.
Assay [2] has the same target. The assay is described as follows: cross-linking; DSSO cross-linking mass spectrometry of 28 μM purified MuvB complex, 10 min on ice, monomeric SEC fraction analysed; both purified.
Assay [3] concerns the target T1, LIN37^FL(1–246) (human, UniProt Q96GY3 1-246).
T1 construct: LIN37, human, residues 1-246 (LIN37^FL), codon optimised CDS; Carries the StrepII x2 tag by which the MuvB complexes were purified; the tag was removed with 3C protease before the final SEC; also called FL-LIN37; source: Hi-5 insect cells co-infected with MuvB baculoviruses; purified as part of the complex (Strep-Tactin, 3C protease, SEC)
T1 sequence (looked up): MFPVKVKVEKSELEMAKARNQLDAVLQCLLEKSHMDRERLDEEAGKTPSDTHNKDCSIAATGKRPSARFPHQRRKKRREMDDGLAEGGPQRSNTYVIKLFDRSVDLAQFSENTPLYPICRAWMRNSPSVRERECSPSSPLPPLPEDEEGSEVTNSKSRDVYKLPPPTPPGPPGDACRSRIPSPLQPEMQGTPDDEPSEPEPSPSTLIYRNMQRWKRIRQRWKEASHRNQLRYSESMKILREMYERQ
Described as above.

Another assay deals with T2, LIN9^FL(1–542) (human, UniProt Q5TKA1 1-542).
T2 construct: LIN9, human, residues 1-542 (LIN9^FL), codon optimised CDS; Subunit of the co-expressed MuvB, MuvB^core and MMB^core complexes; only DIRP and tudor domains are built in PDB 7R1D; source: Hi-5 insect cells co-infected with MuvB baculoviruses; purified as part of the complex (Strep-Tactin, 3C protease, SEC)
T2 sequence (looked up): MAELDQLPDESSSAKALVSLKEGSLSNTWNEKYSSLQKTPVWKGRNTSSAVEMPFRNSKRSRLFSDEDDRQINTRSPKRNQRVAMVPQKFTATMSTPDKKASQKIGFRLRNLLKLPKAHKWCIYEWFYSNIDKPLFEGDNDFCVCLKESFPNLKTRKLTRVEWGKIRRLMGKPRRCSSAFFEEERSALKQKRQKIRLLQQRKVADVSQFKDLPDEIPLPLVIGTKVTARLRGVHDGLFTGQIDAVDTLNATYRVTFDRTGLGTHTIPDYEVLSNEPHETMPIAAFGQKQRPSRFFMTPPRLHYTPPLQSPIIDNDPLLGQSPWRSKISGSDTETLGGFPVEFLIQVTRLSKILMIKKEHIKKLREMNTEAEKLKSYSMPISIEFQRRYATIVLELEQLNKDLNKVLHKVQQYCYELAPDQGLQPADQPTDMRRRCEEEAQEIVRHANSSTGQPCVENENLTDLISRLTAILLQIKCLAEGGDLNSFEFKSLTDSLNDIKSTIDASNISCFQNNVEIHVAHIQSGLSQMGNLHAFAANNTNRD
The assay is described as follows: cryo-EM structure; MMB^core:NCP167 mixed at 2.5:1, GraFix (glutaraldehyde, sucrose gradient); nucleosome at 3.3 Å, MuvB^HEAD 7.5 Å and MuvB^TAIL 8.7 Å, known structures fitted; both purified.

Assay [4] deals with T1, LIN37^FL(1–246). The assay is described as follows: SEC; subunits co-expressed in Hi-5 cells; complex held on Strep-Tactin by StrepII x2 on LIN37, washed with 1000 mM NaCl, tag cut with 3C, then SEC (S200 or Superose 6) in 20 mM HEPES pH 8, 150 mM NaCl, 0.5 mM TCEP.
The target in assay [5] is RbBP4^FL(1–425) with StrepII x2 tag (of the MuvB ΔLIN37 complex) (human) (UniProt Q09028). The assay is described as follows: mass photometry; purified co-expressed complex diluted from 500 nM just before measurement; 20 mM HEPES pH 8, 150 mM NaCl, 0.5 mM TCEP; both purified.

Turning to “B-MYB^FL(1–700) (from UniProt P10244 1-700)”, the binding result with LIN52^FL(1–116) (human) [1] is listed as “binds”.

B1: LIN54^short(515–749) (domain or fragment, human, UniProt Q6MZP7 515-749, looked up)
chain: SESASRPRKPCNCTKSLCLKLYCDCFANGEFCNNCNCTNCYNNLEHENERQKAIKACLDRNPEAFKPKIGKGKEGESDRRHSKGCNCKRSGCLKNYCECYEAKIMCSSICKCIGCKNFEESPERKTLMHLADAAEVRVQQQTAAKTKLSSQISDLLTRPTPALNSGGGKLPFTFVTKEVAEATCNCLLAQAEQADKKGKSKAAAERMILEEFGRCLMSVINSAGKAKSDPCAMNC
notes: LIN54, human, residues 515-749 (non-conserved N-terminus removed), codon optimised CDS; also called short version of LIN54; source: Hi-5 insect cells co-infected with MuvB baculoviruses; purified as part of the complex (Strep-Tactin, 3C protease, SEC)
As for B1, the binding entry with LIN52^FL(1–116) (human) [2] was “binds”.

B2: LIN52^FL(1–116) (natural protein, human, UniProt Q52LA3 1-112, looked up)
chain: MASPTDGTDLEASLLSFEKLDRASPDLWPEQLPGVAEFAASFKSPITSSPPKWMAEIERDDIDMLKELGSLTTANLMEKVRGLQNLAYQLGLDESREMTRGKFLNILEKPKK
notes: LIN52, human, residues 1-116 (LIN52^FL), codon optimised CDS; source: Hi-5 insect cells co-infected with MuvB baculoviruses; purified as part of the complex (Strep-Tactin, 3C protease, SEC)
For the molecule B2, the binding entry (with LIN37^FL(1–246) [3]; in the assay with LIN9^FL(1–542); in the assay with LIN37^FL(1–246) [4]; in assay [5]) was “binds” each time.
